{"source": "PubChem BioAssay AID588497", "about": "(NMMLSC, 2011)", "note": "Among all 360,000 compounds or so, about 780 (0.22%) were called active. Inconclusive results, whose numbers are uncertain, are shown with a selection of clear calls. Rule as the data show it: active = inhibition above about 35% (passing the limit was not always enough); inconclusive = no clear call, values can overlap the other calls."}
{"test_system": "Botulinum neurotoxin type F light chain protease (Clostridium botulinum)", "assay": "BoNT/F light chain protease inhibitors, primary screen, biochemical, flow cytometry, MLPCN library (AID 588497); also: plate controls were buffer without enzyme for full effect and enzyme alone for no effect", "conditions": "Multiplex microsphere protease cleavage assay, at 10 µM, active compounds read high"}
{"smiles": "Cc1cc(-c2nc(C)c(-c3nnc(SCC(=O)Nc4ccccc4)n3C)s2)no1", "inhibition": "inconclusive: 30%"}
{"smiles": "O=C(CCCCC(=O)OCC1CCCO1)OCC1CCCO1", "note": "(stereo not given)", "inhibition": "inactive: 12.2%"}
{"smiles": "CC(Sc1nccn1C)C(=O)Nc1ccc(C(N)=O)cc1", "note": "(stereo not given)", "inhibition": "active: 39%"}
{"smiles": "OCc1ncccc1O", "inhibition": "inconclusive: -0.8%"}
{"smiles": "CCn1c(SCC(=O)Nc2cccc(C)c2)nc2nc3c(cc2c1=O)COC(C)(C)C3", "inhibition": "inconclusive: -57.7%"}
{"smiles": "COc1ccc(CN2CCN(Cc3ccccc3F)CC2)cc1OC", "inhibition": "inconclusive: -29.1%"}
{"smiles": "Cc1nn(C2CCCCC2)c(N)c1-c1ccccc1", "inhibition": "inconclusive: -8%"}
{"smiles": "COc1ccccc1C(C[N+](=O)[O-])c1c[nH]c2ccccc12", "note": "(stereo not given)", "inhibition": "inconclusive: 157%"}
{"smiles": "CC(=O)NC(c1ccccc1)c1cc(Cl)c2cccnc2c1O", "note": "(stereo not given)", "inhibition": "inconclusive: -19.5%"}
{"smiles": "COc1ccc(NC(=O)CN2C(=O)COc3ccc(C)cc32)c(OC)c1", "inhibition": "inconclusive: -11.6%"}
{"smiles": "CCCCCOc1ccc(C(=O)NC(C(=O)O)C(C)C)cc1", "note": "(stereo not given)", "inhibition": "active: 38.8%"}
{"smiles": "CN1C(=O)C(=O)/C(=C(/O)c2ccc(Br)cc2)C1c1ccc(F)cc1", "note": "(stereo not given)", "inhibition": "inconclusive: 9.2%"}
{"smiles": "CC(=O)c1ccc(OCCNS(=O)(=O)c2ccc(-n3cnnn3)cc2)cc1", "inhibition": "inactive: -1.5%"}
{"smiles": "CCC1(CC)C(=O)N(C)C(=O)NC1=NC", "inhibition": "inconclusive: -42.2%"}
{"smiles": "C/C(=N/NC(=O)CSc1nc2ccccc2s1)c1ccncc1", "inhibition": "inconclusive: -11.7%"}
{"smiles": "CC(C)CCN1NC2(CCCC(C)C2)NC1=S", "note": "(stereo not given)", "inhibition": "inconclusive: 5.1%"}
{"smiles": "CC1(C)OC(=O)C(=CNc2ccccc2F)C(=O)O1", "inhibition": "inactive: -1.7%"}
{"smiles": "CC(C)CCN(C(=O)CCSc1ccc(F)cc1)c1c(N)n(Cc2ccccc2)c(=O)[nH]c1=O", "inhibition": "inconclusive: 7.5%"}
{"smiles": "CCCC(C)C(=O)NCc1ccc2c(c1)OCO2", "note": "(stereo not given)", "inhibition": "inconclusive: -23.1%"}
{"smiles": "Cc1ccc(S(=O)(=O)N(C)CC(=O)NCC(c2ccco2)N(C)C)cc1", "note": "(stereo not given)", "inhibition": "inactive: -3%"}
{"smiles": "COc1cc(OC)c(/C=C2\\SC(=O)N(CC(=O)Nc3ccccc3F)C2=O)c(OC)c1", "inhibition": "inconclusive: -8.1%"}
{"smiles": "CCCC(=O)c1ccc(CP(=O)(OCC)OCC)o1", "inhibition": "inconclusive: -16.2%"}
{"smiles": "Cc1cc(NC(=O)c2ccc(C)c(C)c2)no1", "inhibition": "inconclusive: 18.8%"}
{"smiles": "C=C1[C@H]2O[C@H]2[C@@H](OC(C)=O)[C@@]2(C)[C@@H](OC(C)=O)C[C@@H](OC(C)=O)[C@@](C)(O)[C@@H]2[C@@H](OC(C)=O)[C@@]2(O)[C@@H](C)C(=O)O[C@H]2[C@H]1Cl", "inhibition": "inactive: 0.3%"}
{"smiles": "O=C(Oc1ccccc1N1CCOCC1)c1ccccc1", "inhibition": "inconclusive: 10%"}
{"smiles": "Cc1ccc(-c2csc3ncnc(NCCC(=O)O)c23)cc1", "inhibition": "inconclusive: 1.7%"}
{"smiles": "COC(=O)c1c(C)oc(C)c1S(=O)(=O)NCc1ccco1", "inhibition": "inconclusive: 52.4%"}
{"smiles": "Cc1ccccc1CC(=O)NC1CCCc2ccccc21", "note": "(stereo not given)", "inhibition": "inconclusive: -21.3%"}
{"smiles": "COc1ccc(O)c(/C=N/c2nc3ccccc3n2C)c1", "inhibition": "inconclusive: 0.3%"}
{"smiles": "CS(=O)(=O)c1ccc(Cl)c(NC(=O)CSc2nnc3n2CCCCC3)c1", "inhibition": "inactive: -3%"}
{"smiles": "CC1=C([N+](=O)[O-])C(c2ccc3c(c2)OCO3)N(C)C(=O)N1C", "note": "(stereo not given)", "inhibition": "inconclusive: -23.3%"}
{"smiles": "COc1ccc(C(=O)NC2CCCc3c2cnn3-c2cc(F)cc(F)c2)c(OC)c1OC", "note": "(stereo not given)", "inhibition": "inactive: -0.6%"}
{"smiles": "Cc1ccccc1C(N)c1ccncc1", "note": "(stereo not given)", "inhibition": "inconclusive: 26.6%"}
{"smiles": "CCOC(=O)C1CCN(C(=O)C2CCN(S(=O)(=O)c3c(C)noc3C)CC2)CC1", "inhibition": "inconclusive: 10.9%"}
{"smiles": "Brc1cccc(CNCC2CCCO2)c1", "note": "(stereo not given)", "inhibition": "inconclusive: -0.1%"}
{"smiles": "Cn1ncc(Br)c1NC(=O)CSc1ccc(Cl)cc1", "inhibition": "inconclusive: -11.1%"}
{"smiles": "Cc1ccc(S(=O)(=O)N(C(=N)N)c2nc(N(C)C)nc(N(C)C)n2)cc1", "inhibition": "inconclusive: 18.4%"}
{"smiles": "COc1nnc(-c2ccc(C)c(S(=O)(=O)N(C)C)c2)c2ccccc12", "inhibition": "inconclusive: 34.8%"}
{"smiles": "Cc1ccccc1OC(C)C(=O)N1CCC(Cc2ccccc2)CC1", "note": "(stereo not given)", "inhibition": "inactive: -3.8%"}
{"smiles": "Cc1nnc(NC(=O)c2ccc(N3CCCC3=O)cc2)s1", "inhibition": "inconclusive: -20.4%"}
{"smiles": "Cn1c(-c2cccc(Br)c2)cnc1NCc1ccccc1O", "inhibition": "inconclusive: -26.5%"}
{"smiles": "CCOC(=O)C1=C(N)n2c(s/c(=C\\c3cccnc3)c2=O)=C(C(=O)OC)C1c1cccnc1", "note": "(stereo not given)", "inhibition": "inactive: -1.6%"}
{"smiles": "CN(C)c1ccc(CN(C(=O)/C=C/c2ccccc2Cl)C2CCS(=O)(=O)C2)cc1", "note": "(stereo not given)", "inhibition": "inconclusive: -84.6%"}
{"smiles": "CCOC(=O)c1cc(C#N)c(Nc2ccccc2OC)nc1C(F)(F)F", "inhibition": "inconclusive: -14.7%"}
{"smiles": "COC(=O)C1CCN(C(=O)/C=C/c2ccc3c(c2)OCO3)CC1", "inhibition": "inconclusive: -1.2%"}
{"smiles": "Cc1cccc(CN2CCN(c3ncccn3)CC2)c1", "inhibition": "inconclusive: 14.5%"}
{"smiles": "Cc1ccc(OCc2ccc(C(=O)NN)o2)cc1C", "inhibition": "inconclusive: 0.2%"}
{"smiles": "CCOc1cccc(N2C(=O)CC(=O)NC2=O)c1", "inhibition": "inactive: 1.1%"}
{"smiles": "COC(=O)c1sc(NC(=S)NC(=O)c2cccc(Br)c2)nc1C", "inhibition": "inconclusive: 16.3%"}
{"smiles": "CC(=O)c1ccc(NC(=O)CN(c2c(C)cccc2C)S(C)(=O)=O)cc1", "inhibition": "inconclusive: 14.1%"}
{"smiles": "Clc1ccc(SCCOCCN2CCOCC2)cc1", "inhibition": "inconclusive: 12.8%"}
{"smiles": "COc1ccc(NC(=O)C2CCN(S(=O)(=O)c3ccc4c(c3)NC(=O)CO4)CC2)cc1", "inhibition": "inactive: 1.3%"}
{"smiles": "CCCC1CCc2c(sc(NC(=O)OCC)c2C#N)C1", "note": "(stereo not given)", "inhibition": "inactive: 15.7%"}
{"smiles": "O=S(=O)(NCCN1CCOCC1)c1cc(Cl)ccc1Cl", "inhibition": "inconclusive: -8.4%"}
{"smiles": "O=S(=O)(c1ccccc1OC(F)(F)F)N1CCN(c2ccnc3cc(Cl)ccc23)CC1", "inhibition": "inactive: -3.9%"}
{"smiles": "Cc1ccc2[nH]c3c(c2c1)CN(C(=O)CN1CC(C)OC(C)C1)CC3", "note": "(stereo not given)", "inhibition": "inconclusive: 166%"}
{"smiles": "Cc1ccc(C)c(S(=O)(=O)NCc2ccc3c(c2)OCO3)c1", "inhibition": "inactive: 3.8%"}
{"smiles": "CCOc1ccccc1C(=O)NCC(=O)NNC(=O)CN(C)S(=O)(=O)c1ccc(Cl)cc1", "inhibition": "inactive: 11.9%"}
{"smiles": "CCOc1cc(C)nc(NCc2ccccc2)n1", "inhibition": "inactive: 21.6%"}
{"smiles": "Cc1cccc(OCCCN2CCOCC2)c1", "inhibition": "inconclusive: 35.3%"}
{"smiles": "COCCNC(C(=O)Nc1cc(Cl)cc(Cl)c1)c1ccccc1", "note": "(stereo not given)", "inhibition": "inconclusive: -26.7%"}
{"smiles": "CCCCn1c(O)c(/C=N/NC(=O)c2ccncc2)c(=O)[nH]c1=S", "inhibition": "inconclusive: -25.7%"}
{"smiles": "CC(Cc1ccccc1)NC(=S)CN1CCCC1=S", "note": "(stereo not given)", "inhibition": "inconclusive: -25.6%"}
{"smiles": "Cc1cc(C)cc(OCC(=O)O/N=C(\\N)c2ccccc2Cl)c1", "inhibition": "inconclusive: -30.3%"}
{"smiles": "CCCCCC(C(=O)O)C(C)CC(=O)NC1CCCCC1", "note": "(stereo not given)", "inhibition": "inactive: -7.1%"}
{"smiles": "S=C(NCCN1CCOCC1)Nc1ccc(Nc2ccccc2)cc1", "inhibition": "inactive: -2.1%"}
{"smiles": "Cc1cc(C)nc(SC2CC(=O)N(c3ccc(Cl)cc3)C2=O)n1", "note": "(stereo not given)", "inhibition": "inconclusive: -13.5%"}
{"smiles": "Nc1ccc(C=Cc2ccc(N)cc2)cc1", "inhibition": "inactive: -9.4%"}
{"smiles": "O=C(CCNC(=O)c1ccc(Br)o1)NCc1ccccn1", "inhibition": "inactive: -5.2%"}
{"smiles": "COc1ccc(C(=O)Nc2ccc(O)c3ccccc23)cc1OC", "inhibition": "inconclusive: 0.1%"}
{"smiles": "Cc1ccn2cc(-c3cnoc3C)nc2c1", "inhibition": "inconclusive: -17.5%"}
{"smiles": "O=c1c2ccccc2[nH]c(=S)n1CC1CCCO1", "note": "(stereo not given)", "inhibition": "inactive: -42%"}
{"smiles": "COC(=O)c1n[nH]n(-c2ccc(F)c(Cl)c2)c1=O", "inhibition": "inconclusive: 31.8%"}
{"smiles": "Cc1cccc(CN2CCC(n3nccc3NC(=O)CCCc3ccccc3)CC2)c1", "inhibition": "inactive: -3.9%"}
{"smiles": "CNC(=O)CCN(Cc1ccco1)S(=O)(=O)c1ccc(OC)c(OC)c1", "inhibition": "inconclusive: -123%"}
{"smiles": "C[C@H](NC(=O)[C@@H]1Cc2ccccc2CN1)C(=O)NC1CCCCC1", "inhibition": "inactive: -3.3%"}
{"smiles": "O=C(Nc1cccc(C(F)(F)F)c1)OCc1ccncc1", "inhibition": "inconclusive: -70.1%"}
{"smiles": "COC(=O)CC(NC(=S)N1CC2C[C@@H](C1)Cn1c2cccc1=O)C(=O)OC", "note": "(stereo not given in full)", "inhibition": "inconclusive: 8.4%"}
{"smiles": "O=c1nc(N/N=C/C=C/c2ccccc2)cn[nH]1", "inhibition": "inactive: -7.2%"}
{"smiles": "C(C#CCN1CCOCC1)#CCN1CCOCC1", "inhibition": "inactive: 8.7%"}
{"smiles": "Clc1ccccc1N1CCN(Cc2ccco2)CC1", "inhibition": "active: 50.3%"}
{"smiles": "CC(=O)c1cccc(OCC(O)CNCC2CCCCC2)c1", "note": "(stereo not given)", "inhibition": "inconclusive: -6.3%"}
{"smiles": "COc1ccccc1OCc1nnc(SCC(N)=O)n1-c1ccccc1", "inhibition": "inconclusive: -15%"}
{"smiles": "Cn1c(=O)c2nc(NCc3ccccc3)sc2n(C)c1=O", "inhibition": "inactive: 1.5%"}
{"smiles": "CCCc1cc(=O)oc2cc(OCc3ccc(C(=O)O)cc3)ccc12", "inhibition": "inconclusive: 8%"}
{"smiles": "O=C(Nc1c(F)cccc1F)C1CCN(C(=O)c2cccs2)CC1", "inhibition": "inactive: 0.4%"}
{"smiles": "CC(C)C[C@H]1CNC(=S)N1C[C@H]1CCCN1C[C@H](Cc1ccc(O)cc1)N1C[C@H](Cc2ccc(O)cc2)N(CC2CCCCC2)C1=S", "inhibition": "inactive: -11%"}
{"smiles": "CCOC(=O)CN1N=C(c2ccc(C)cc2)CCC1=O", "inhibition": "inactive: -13%"}
{"smiles": "CCC(=O)N(Cc1cc(=O)[nH]c2ccccc12)c1ccc(OC)cc1", "inhibition": "inconclusive: 6.4%"}
{"smiles": "O=c1[nH]c(-[n+]2ccccc2)c(/C=N/NC([S-])=Nc2ccccc2)s1", "inhibition": "inconclusive: 28.2%"}
{"smiles": "CCCC(=O)Nc1ccc2c(c1)nc(CCN1CCCCC1)n2C", "inhibition": "inconclusive: 18.4%"}
{"smiles": "Cc1cc(S(=O)(=O)NCC(=O)O)ccc1F", "inhibition": "inactive: -10.1%"}
{"smiles": "O=C(COc1ccccc1Cl)N1CCc2ccccc2C1", "inhibition": "inconclusive: -12.6%"}
{"smiles": "CCOc1cccc2cc(C(=O)Oc3ccc(OC)cc3)c(=O)oc12", "inhibition": "inconclusive: -8.3%"}
{"smiles": "CS(=O)(=O)N(CC(=O)N1CCOCC1)c1ccccc1", "inhibition": "inconclusive: -12.4%"}
